In PubChem BioAssay AID2551 (National Center for Advancing Translational Sciences (NCATS), 2010):
In all, about 310,000 compounds went through this assay and about 17,000 (5.5%) were called active. The shares of active, inactive and inconclusive entries below differ from those in the screen. Calls follow the shape of the dose curve; as a rule, active = well fitted inhibition curve with a large enough effect; inconclusive = small, poorly fitted or top-dose-only effect, or effect the other way; inactive = no such curve, though single readings can be large or run the other way. Potencies of inconclusive entries are doubtful fits and often do not repeat.
% is scaled to controls: 0 for no effect and ±100 for the full control effect; potency is read from the fitted curve at half-maximal effect.
Also: nearly all actives have a fitted effect of over 60% in size.

By UniProt entry, the sequences of proteins in these tests, tags left out. Where a name states a change or a piece, a line headed by the entry shows the natural chain unless it says otherwise.
UniProt P51450: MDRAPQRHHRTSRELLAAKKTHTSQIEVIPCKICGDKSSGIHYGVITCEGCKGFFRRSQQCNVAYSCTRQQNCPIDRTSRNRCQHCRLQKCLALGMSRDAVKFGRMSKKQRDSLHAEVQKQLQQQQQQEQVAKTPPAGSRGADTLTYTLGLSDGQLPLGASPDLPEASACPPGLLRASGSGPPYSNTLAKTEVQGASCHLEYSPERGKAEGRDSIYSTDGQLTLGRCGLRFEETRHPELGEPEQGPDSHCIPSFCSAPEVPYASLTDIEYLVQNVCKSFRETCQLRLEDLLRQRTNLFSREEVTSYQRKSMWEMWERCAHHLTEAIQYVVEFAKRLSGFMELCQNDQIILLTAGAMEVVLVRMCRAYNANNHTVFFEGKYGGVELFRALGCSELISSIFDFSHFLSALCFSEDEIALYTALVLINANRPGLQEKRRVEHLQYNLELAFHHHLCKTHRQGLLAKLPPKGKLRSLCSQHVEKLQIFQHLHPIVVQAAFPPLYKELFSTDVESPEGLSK

The compounds below were run against Nuclear receptor ROR-gamma (Mus musculus) (UniProt P51450) (assay: qHTS for inhibitors of ROR gamma transcriptional activity). Details: Drosophila S2 Gal4-RORgamma UAS-luciferase reporter, 20 h; activity change, negative = inhibition: at 53.6 µM (top of the series).
How it was run: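 Using a luciferase readout, inhibitors were identified by reduced reporter activity in Drosophila cells coexpressing a copper-inducible Gal4–ROR gamma fusion and UAS-driven Photinus luciferase, incubated 20 hr after 700 uM copper sulfate.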
In the case of `Cc1ccsc1/C=C(\C#N)C(=O)NCc1ccco1`, the Potency is reported as inconclusive: 0.708 µM [activator, partial curve, poor fit]. With `COc1ccc(-c2cc(C(=O)N3CCc4ccccc4C3)no2)cc1OC` the Potency was inconclusive: 25.1 µM [inhibitor, single point]. For `Cc1sc2ncn(CC(=O)NCCCC(=O)N(C)Cc3ccccc3)c(=O)c2c1C`, the Potency was “inactive”. With `O=C(Nc1ccc(NC(=O)c2cccs2)cc1Cl)c1ccco1` the Potency was inconclusive: 20 µM [activator, single point]. In the case of `Cc1ccc(-c2cc(C(=O)NN=C3CCCC3)c3ccccc3n2)cc1`, the Potency is reported as active: 12.6 µM. `CCNC(=S)NNC(=O)c1cc(-c2ccc(OCC)cc2)nc2ccccc12` was tested, and the Potency was “inactive”. With `CCOc1ccc(NC(=O)CN2CCC(NC(=O)C3CCCCC3)CC2)cc1` the Potency was “inactive”. With `O=C(OCn1nnc2ccccc2c1=O)c1ccc2ncsc2c1` the Potency was “inactive”. In the case of `Cc1nc2cc(NC(=O)c3ccco3)ccc2n1C`, the Potency is reported as active: 15.8 µM. For `CC1Oc2ccccc2OC1(O)c1ccccn1` (configuration not stated), the Potency was inconclusive: 11.2 µM [inhibitor, partial curve]. With `O=[N+]([O-])c1ccccc1/C=N/n1c(-c2ccccc2)n[nH]c1=S` the Potency was inconclusive: 28.2 µM [inhibitor, single point]. With `CCc1cc(-c2n[nH]c(=S)n2-c2ccccc2C)cs1` the Potency was active: 3.98 µM. For `CCOc1ccc(C(=O)Nc2nnn(CC)n2)cc1`, the Potency was inconclusive: 0.355 µM [activator, partial curve, poor fit]. With `COc1ccc(CNc2nc3ccc(C)cc3s2)c(OC)c1OC` the Potency was inconclusive: 35.5 µM [inhibitor, single point]. `COCCCNc1nc2c(c(=O)n(Cc3ccc(Cl)cc3)c(=O)n2C)n1C` was tested, and the Potency was inconclusive: 11.2 µM [activator, partial curve]. With `CNc1cc(-c2ccccc2C(F)(F)F)ncn1` the Potency was “inactive”. `O=C(O)/C=C/c1ccccc1` was tested, and the activity change, negative = inhibition was inactive: 7.25% [at 10 µM]. `O=C(Nc1cccc(Cl)c1)ON=C1c2ccccc2-c2ccccc21` was tested, and the Potency was “inactive”. `CC(C)NC(=O)N1CCC2(CC1)CCN(S(=O)(=O)c1ccccc1)CC2` was tested, and the Potency was “inactive”. `COc1cccc(/C=N/Nc2nc3ccccc3[nH]2)c1OC` was tested, and the Potency was inconclusive: 7.08 µM [inhibitor, partial curve]. With `CCCS(=O)(=O)N1CCCC(C(=O)NCCc2cccc(C)c2)C1` (configuration not stated) the Potency was “inactive”. In the case of `CCOC(=O)c1ccc(-n2[nH]c(-c3ccccc3)cc2=O)cc1`, the Potency is reported as inconclusive: 2.51 µM [activator, partial curve, poor fit]. For `CC(C)(C)C(=O)NC(=S)Nc1cc(C(F)(F)F)ccc1N1CCOCC1`, the Potency was active: 12.6 µM. In the case of `COc1cc(NC(=O)C2CCCN(S(=O)(=O)c3cccc4nsnc34)C2)cc(OC)c1` (configuration not stated), the Potency is reported as inconclusive: 20 µM [activator, single point]. For `O=C1[C@@H]2[C@@H]3C[C@@H]([C@H]4ON=C(c5ccc(Cl)cc5Cl)[C@@H]34)[C@@H]2C(=O)N1C1CCCCC1`, the Potency was inconclusive: 11.2 µM [activator, single point]. With `Cc1nn(C)cc1-c1n[nH]c(=S)n1-c1ccc(Cl)cc1` the Potency was inconclusive: 15.8 µM [inhibitor, single point]. For `CS(=O)(=O)N1CCC(Oc2ccccc2C(=O)NCCCc2cccnc2)CC1`, the Potency was inconclusive: 6.31 µM [activator, single point]. In the case of `COc1cc(/C=N/NC(=O)CCOc2ccccc2C)cc(Br)c1O`, the Potency is reported as inconclusive: 12.6 µM [activator, partial curve]. `COc1cc(CN2CCCC(CO)(Cc3ccccc3)C2)ccc1O` (configuration not stated) was tested, and the Potency was inconclusive: 0.112 µM [inhibitor, single point]. `Cc1cccc2c(C(=O)N3CCN(C(=O)c4ccco4)CC3)cc(-c3cccc(Br)c3)nc12` was tested, and the Potency was inconclusive: 12.6 µM [inhibitor, single point]. With `CC(C)N(CCCNC(=O)Cn1c(=O)c2cccn2c2ccccc21)Cc1ccccc1` the Potency was “inactive”. In the case of `OC(CNCC(c1ccc(Cl)cc1Cl)c1c[nH]c2ccccc12)c1ccccc1` (configuration not stated), the Potency is reported as inconclusive: 35.5 µM [inhibitor, single point]. In the case of `CCc1cc(C(=O)O)c(NC(=O)C(c2ccccc2)c2ccccc2)s1`, the Potency is reported as inconclusive: 0.447 µM [activator, partial curve, poor fit]. For `CN(C)c1ccc(N2C(=NC(=O)CC3CCCCC3)SC3CS(=O)(=O)CC32)cc1` (configuration not stated), the Potency was “inactive”. In the case of `Cc1ccc(S(=O)(=O)NCC(=O)Nc2cccc([N+](=O)[O-])c2)cc1`, the Potency is reported as “inactive”. `O=C(Nc1ccccc1N1CCOCC1)c1ccc(Cl)c(S(=O)(=O)NCc2ccco2)c1` was tested, and the Potency was “inactive”. For `CC1CCN(S(=O)(=O)c2ccc(C(=O)Nc3ncccc3O)cc2)CC1`, the Potency was inconclusive: 14.1 µM [inhibitor, single point]. In the case of `O=c1cc(-c2ccccc2)oc2ccc(O)cc12`, the Potency is reported as “inactive”. `CCCCN1C(=O)c2ccc(C(=O)NCCN3C(=O)S/C(=C\c4cccnc4)C3=O)cc2C1=O` was tested, and the Potency was inconclusive: 17.8 µM [activator, single point]. For `CC[n+]1c(C)sc2c(C)cc(C)cc21`, the Potency was “inactive”. In the case of `COc1ccc(-c2n[nH]c(=S)n2-c2ccc(C)cc2)cc1`, the Potency is reported as active: 0.891 µM. With `NC(N)=Nc1nc(-c2ccccc2)c2ccccc2n1` the Potency was inconclusive: 17.8 µM [inhibitor, single point]. `Cc1ccc(C)c(N(C(=O)Cc2cccs2)C(C(=O)NC2CCCC2)c2ccc(C)o2)c1` (configuration not stated) was tested, and the Potency was “inactive”. For `CC1Oc2ccccc2N(CC(=O)N(Cc2ccccc2)Cc2ccccn2)C1=O` (configuration not stated), the Potency was inconclusive: 4.47 µM [activator, full curve]. For `CCOc1cccc(C(=O)Nc2nccs2)c1`, the Potency was inconclusive: 35.5 µM [inhibitor, single point]. `Cc1cccc(C)c1NC(=O)Cn1nnc(C(=O)Nc2ccc(F)cc2F)c1N` was tested, and the Potency was inconclusive: 31.6 µM [inhibitor, single point]. `CN(C)c1ccc(/C=N/NC(=O)c2cnc3ccccc3c2)cc1` was tested, and the Potency was inconclusive: 35.5 µM [inhibitor, single point].
